Source: PMC7276988, “Cryo-EM Structure of the Fork Protection Complex Bound to CMG at a Replication Fork” (Molecular Cell, 2020)
Results are given in words; binding and its absence hold for the method and conditions named. For part of these data: In cells and extracts the contact can be indirect. Some binding calls cover weakened binding; strength is not graded here.

The chains behind the UniProt entries cited, without tags or fusion partners.
UniProt P29469: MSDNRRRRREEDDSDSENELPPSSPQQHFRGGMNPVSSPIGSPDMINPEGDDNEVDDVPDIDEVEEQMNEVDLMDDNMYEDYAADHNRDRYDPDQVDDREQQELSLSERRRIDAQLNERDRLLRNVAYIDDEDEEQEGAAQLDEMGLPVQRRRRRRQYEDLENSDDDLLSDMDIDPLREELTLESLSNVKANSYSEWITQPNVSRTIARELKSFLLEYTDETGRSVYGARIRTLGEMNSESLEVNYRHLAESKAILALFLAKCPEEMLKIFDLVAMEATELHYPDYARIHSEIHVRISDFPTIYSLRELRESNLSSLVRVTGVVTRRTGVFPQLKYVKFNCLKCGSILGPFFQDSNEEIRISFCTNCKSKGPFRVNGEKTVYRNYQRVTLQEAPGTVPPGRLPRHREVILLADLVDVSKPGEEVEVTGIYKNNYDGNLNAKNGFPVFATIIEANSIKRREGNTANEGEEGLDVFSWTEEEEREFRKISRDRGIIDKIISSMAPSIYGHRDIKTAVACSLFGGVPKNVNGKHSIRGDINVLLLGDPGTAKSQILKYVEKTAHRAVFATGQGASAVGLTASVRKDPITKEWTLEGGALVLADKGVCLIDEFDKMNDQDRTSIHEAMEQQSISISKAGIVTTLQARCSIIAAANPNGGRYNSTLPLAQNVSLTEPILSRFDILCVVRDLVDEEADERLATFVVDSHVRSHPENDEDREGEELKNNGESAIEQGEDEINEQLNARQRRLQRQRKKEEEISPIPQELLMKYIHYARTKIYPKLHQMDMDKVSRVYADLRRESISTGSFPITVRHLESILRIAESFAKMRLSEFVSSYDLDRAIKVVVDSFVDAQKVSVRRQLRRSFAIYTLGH
UniProt P53091: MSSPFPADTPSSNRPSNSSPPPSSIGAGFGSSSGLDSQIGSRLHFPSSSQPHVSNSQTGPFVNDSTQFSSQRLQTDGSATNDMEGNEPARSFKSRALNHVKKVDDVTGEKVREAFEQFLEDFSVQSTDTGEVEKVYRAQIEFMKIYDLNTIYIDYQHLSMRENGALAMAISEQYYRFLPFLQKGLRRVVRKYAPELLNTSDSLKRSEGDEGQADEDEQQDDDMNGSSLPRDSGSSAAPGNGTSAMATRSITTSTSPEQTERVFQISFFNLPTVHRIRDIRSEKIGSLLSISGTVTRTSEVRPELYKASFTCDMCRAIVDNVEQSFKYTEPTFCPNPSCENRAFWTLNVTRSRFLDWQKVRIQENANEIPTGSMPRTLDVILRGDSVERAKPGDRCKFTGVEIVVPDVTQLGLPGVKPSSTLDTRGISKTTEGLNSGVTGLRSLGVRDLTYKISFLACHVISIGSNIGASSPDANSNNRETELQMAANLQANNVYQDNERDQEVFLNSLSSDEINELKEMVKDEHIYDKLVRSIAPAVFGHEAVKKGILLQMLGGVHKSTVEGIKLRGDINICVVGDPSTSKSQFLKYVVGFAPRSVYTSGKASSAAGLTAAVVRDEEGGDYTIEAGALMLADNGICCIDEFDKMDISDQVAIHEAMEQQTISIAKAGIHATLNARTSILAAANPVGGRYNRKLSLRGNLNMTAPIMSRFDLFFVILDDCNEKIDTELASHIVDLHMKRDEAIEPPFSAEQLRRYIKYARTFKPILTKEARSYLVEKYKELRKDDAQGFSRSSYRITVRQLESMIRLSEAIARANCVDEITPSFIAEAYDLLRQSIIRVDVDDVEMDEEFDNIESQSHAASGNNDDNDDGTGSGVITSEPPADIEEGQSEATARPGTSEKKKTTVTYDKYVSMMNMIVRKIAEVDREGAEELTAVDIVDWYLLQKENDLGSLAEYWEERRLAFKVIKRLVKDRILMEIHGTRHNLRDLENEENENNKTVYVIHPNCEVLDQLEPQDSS

T1: Tof1 (S. cerevisiae, UniProt P53840 1-1238, phosphorylated (sites not given))
T1 construct: Tof1, S. cerevisiae; residues 13-781 are resolved in the map; The Tof1 chain of m2; source: S. cerevisiae, overexpressed with Csm3, purified as Csm3/Tof1; in XL-MS part of the co-expressed, co-purified complex (yJY74)
T1 sequence: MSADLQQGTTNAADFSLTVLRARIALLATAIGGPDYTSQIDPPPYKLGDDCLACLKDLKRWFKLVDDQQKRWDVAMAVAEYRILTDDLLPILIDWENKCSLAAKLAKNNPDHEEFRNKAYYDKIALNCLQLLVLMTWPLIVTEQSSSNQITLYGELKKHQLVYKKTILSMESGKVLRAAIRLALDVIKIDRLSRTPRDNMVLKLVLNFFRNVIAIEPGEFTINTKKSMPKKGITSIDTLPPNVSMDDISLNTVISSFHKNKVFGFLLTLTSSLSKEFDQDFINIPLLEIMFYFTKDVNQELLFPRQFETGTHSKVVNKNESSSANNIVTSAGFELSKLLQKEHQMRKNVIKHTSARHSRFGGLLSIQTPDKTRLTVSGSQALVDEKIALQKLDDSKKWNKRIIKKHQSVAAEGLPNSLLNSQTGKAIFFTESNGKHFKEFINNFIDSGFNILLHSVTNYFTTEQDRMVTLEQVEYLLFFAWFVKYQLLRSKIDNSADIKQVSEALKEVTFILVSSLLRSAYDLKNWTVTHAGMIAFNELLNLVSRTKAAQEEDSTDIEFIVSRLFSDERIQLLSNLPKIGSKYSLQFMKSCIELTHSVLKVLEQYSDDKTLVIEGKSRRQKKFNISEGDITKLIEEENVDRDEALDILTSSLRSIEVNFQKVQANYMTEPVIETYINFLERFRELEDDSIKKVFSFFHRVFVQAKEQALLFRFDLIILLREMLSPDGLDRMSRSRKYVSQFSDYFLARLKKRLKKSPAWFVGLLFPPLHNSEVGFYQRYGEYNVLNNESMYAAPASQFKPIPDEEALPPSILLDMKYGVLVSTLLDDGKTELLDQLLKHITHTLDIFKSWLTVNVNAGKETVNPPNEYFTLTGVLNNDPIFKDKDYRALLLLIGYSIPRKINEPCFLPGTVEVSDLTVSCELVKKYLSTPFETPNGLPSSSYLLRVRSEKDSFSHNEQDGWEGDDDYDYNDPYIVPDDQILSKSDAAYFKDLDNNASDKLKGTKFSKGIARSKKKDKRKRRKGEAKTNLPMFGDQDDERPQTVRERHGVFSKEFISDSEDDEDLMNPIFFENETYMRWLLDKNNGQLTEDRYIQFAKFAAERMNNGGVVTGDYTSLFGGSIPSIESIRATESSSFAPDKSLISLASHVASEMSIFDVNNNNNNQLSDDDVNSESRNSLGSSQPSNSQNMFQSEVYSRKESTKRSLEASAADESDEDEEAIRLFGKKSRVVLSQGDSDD

T2: Tof1^(K400A, R401A, K404A) (S. cerevisiae) (UniProt P53840)
T2 sequence: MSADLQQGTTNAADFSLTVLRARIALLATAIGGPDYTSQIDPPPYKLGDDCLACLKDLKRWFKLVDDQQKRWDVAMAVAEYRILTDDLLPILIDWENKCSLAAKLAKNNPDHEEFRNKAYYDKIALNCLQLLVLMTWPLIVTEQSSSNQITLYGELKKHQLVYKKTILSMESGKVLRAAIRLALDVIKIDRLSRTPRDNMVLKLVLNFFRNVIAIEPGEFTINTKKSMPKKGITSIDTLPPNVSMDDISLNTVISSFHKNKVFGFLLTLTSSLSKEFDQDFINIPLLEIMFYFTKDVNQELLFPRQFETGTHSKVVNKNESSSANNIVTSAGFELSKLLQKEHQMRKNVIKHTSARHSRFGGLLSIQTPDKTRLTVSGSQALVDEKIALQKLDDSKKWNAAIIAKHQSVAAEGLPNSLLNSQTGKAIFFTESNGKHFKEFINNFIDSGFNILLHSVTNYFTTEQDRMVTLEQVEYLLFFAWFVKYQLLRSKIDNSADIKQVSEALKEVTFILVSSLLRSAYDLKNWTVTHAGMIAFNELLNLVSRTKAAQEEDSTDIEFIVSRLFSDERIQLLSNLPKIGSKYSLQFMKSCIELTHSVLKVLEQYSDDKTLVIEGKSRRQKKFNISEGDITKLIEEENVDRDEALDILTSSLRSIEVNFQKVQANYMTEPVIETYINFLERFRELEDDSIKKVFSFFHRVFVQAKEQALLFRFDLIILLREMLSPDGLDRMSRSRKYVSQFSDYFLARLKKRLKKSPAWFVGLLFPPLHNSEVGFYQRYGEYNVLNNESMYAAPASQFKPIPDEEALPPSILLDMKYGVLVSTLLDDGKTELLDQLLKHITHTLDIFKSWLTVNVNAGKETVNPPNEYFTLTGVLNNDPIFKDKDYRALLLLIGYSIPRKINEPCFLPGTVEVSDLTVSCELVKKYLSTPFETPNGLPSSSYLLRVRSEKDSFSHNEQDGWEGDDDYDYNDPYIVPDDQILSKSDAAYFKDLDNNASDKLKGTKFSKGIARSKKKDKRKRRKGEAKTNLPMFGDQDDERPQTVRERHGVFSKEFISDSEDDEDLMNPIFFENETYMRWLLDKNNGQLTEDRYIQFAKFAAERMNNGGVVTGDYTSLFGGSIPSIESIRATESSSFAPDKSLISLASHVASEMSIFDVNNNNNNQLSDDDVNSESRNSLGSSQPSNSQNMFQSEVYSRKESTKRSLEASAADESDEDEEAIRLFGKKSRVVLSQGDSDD

T3: Csm3 (S. cerevisiae) (UniProt Q04659)
T3 sequence: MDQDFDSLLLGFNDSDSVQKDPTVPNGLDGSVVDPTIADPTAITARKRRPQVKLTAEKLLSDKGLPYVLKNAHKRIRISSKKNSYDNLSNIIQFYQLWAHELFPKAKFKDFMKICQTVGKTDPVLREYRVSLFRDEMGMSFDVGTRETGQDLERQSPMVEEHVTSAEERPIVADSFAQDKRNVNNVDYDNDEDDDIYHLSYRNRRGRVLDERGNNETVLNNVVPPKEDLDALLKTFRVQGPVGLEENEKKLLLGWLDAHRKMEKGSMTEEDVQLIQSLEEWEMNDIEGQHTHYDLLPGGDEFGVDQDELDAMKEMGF


Key:
Tof1 [1] = target: T1, Tof1; test: cryo-EM structure; reconstituted from purified CMG, fork DNA, Csm3/Tof1, Ctf4, Mrc1 with AMP-PNP; glycerol gradient fixation (glutaraldehyde and BS3); both purified
[2] = target: T2, Tof1^(K400A, R401A, K404A) (S. cerevisiae); test: co-purification of co-expressed subunits; mutant heterodimers purified (Figure S10A); Csm3/Tof1 purification: Calmodulin Sepharose with TEV elution, MonoQ, Superdex 200 gel filtration
Tof1 [3] = target: T1, Tof1; test: as above
Mcm2 (S. cerevisiae) = Mcm2 (S. cerevisiae) (UniProt P29469); test: cryo-EM structure; reconstituted from purified CMG, fork DNA, Csm3/Tof1, Ctf4, Mrc1 with AMP-PNP; glycerol gradient fixation (glutaraldehyde and BS3); both purified
Mcm6 (S. cerevisiae) = Mcm6 (S. cerevisiae) (UniProt P53091); test: as above
Csm3 (S. cerevisiae) = target: T3, Csm3 (S. cerevisiae); test: cross-linking; XL-MS: co-expressed complex of CMG, Ctf4, Csm3/Tof1 and Mrc1, calmodulin eluate cross-linked with 100-fold excess of DSBU, 60 min, room temperature; trypsin, LC-MS/MS, MeroX; cross-links residues within about 30 Å

Binder	binding (Tof1 [1])	binding [2]	binding (Tof1 [3])	binding (Mcm2 (S. cerevisiae))	binding (Mcm6 (S. cerevisiae))	binding (Csm3 (S. cerevisiae))
Csm3^(R49A, K53A) (protein, UniProt Q04659 1-317) MDQDFDSLLLGFNDSDSVQKDPTVPNGLDGSVVDPTIADPTAITARKRAPQVALTAEKLLSDKGLPYVLKNAHKRIRISSKKNSYDNLSNIIQFYQLWAHELFPKAKFKDFMKICQTVGKTDPVLREYRVSLFRDEMGMSFDVGTRETGQDLERQSPMVEEHVTSAEERPIVADSFAQDKRNVNNVDYDNDEDDDIYHLSYRNRRGRVLDERGNNETVLNNVVPPKEDLDALLKTFRVQGPVGLEENEKKLLLGWLDAHRKMEKGSMTEEDVQLIQSLEEWEMNDIEGQHTHYDLLPGGDEFGVDQDELDAMKEMGF	–	binds	binds	–	–	–
Csm3^(K47A, R48A, R49A, Q51A, K53A) (protein, UniProt Q04659 1-317) MDQDFDSLLLGFNDSDSVQKDPTVPNGLDGSVVDPTIADPTAITARAAAPAVALTAEKLLSDKGLPYVLKNAHKRIRISSKKNSYDNLSNIIQFYQLWAHELFPKAKFKDFMKICQTVGKTDPVLREYRVSLFRDEMGMSFDVGTRETGQDLERQSPMVEEHVTSAEERPIVADSFAQDKRNVNNVDYDNDEDDDIYHLSYRNRRGRVLDERGNNETVLNNVVPPKEDLDALLKTFRVQGPVGLEENEKKLLLGWLDAHRKMEKGSMTEEDVQLIQSLEEWEMNDIEGQHTHYDLLPGGDEFGVDQDELDAMKEMGF	–	binds	binds	–	–	–

Now from value to binder:

binding (Tof1 [1])	binding [2]	binding (Tof1 [3])	binding (Mcm2 (S. cerevisiae))	binding (Mcm6 (S. cerevisiae))	binding (Csm3 (S. cerevisiae))	Binder
binds	binds	–	–	–	–	Csm3 (natural protein, S. cerevisiae, Csm3, S. cerevisiae; residues 46-139 are resolved in the map; The Csm3 chain of m2; source: S. cerevisiae, overexpressed with Tof1, purified as Csm3/Tof1; in XL-MS part of the co-expressed, co-purified complex (yJY74)) MDQDFDSLLLGFNDSDSVQKDPTVPNGLDGSVVDPTIADPTAITARKRRPQVKLTAEKLLSDKGLPYVLKNAHKRIRISSKKNSYDNLSNIIQFYQLWAHELFPKAKFKDFMKICQTVGKTDPVLREYRVSLFRDEMGMSFDVGTRETGQDLERQSPMVEEHVTSAEERPIVADSFAQDKRNVNNVDYDNDEDDDIYHLSYRNRRGRVLDERGNNETVLNNVVPPKEDLDALLKTFRVQGPVGLEENEKKLLLGWLDAHRKMEKGSMTEEDVQLIQSLEEWEMNDIEGQHTHYDLLPGGDEFGVDQDELDAMKEMGF
–	–	–	binds	binds	binds	Tof1 (protein, UniProt P53840 1-1238, phosphorylated (sites not given)) MSADLQQGTTNAADFSLTVLRARIALLATAIGGPDYTSQIDPPPYKLGDDCLACLKDLKRWFKLVDDQQKRWDVAMAVAEYRILTDDLLPILIDWENKCSLAAKLAKNNPDHEEFRNKAYYDKIALNCLQLLVLMTWPLIVTEQSSSNQITLYGELKKHQLVYKKTILSMESGKVLRAAIRLALDVIKIDRLSRTPRDNMVLKLVLNFFRNVIAIEPGEFTINTKKSMPKKGITSIDTLPPNVSMDDISLNTVISSFHKNKVFGFLLTLTSSLSKEFDQDFINIPLLEIMFYFTKDVNQELLFPRQFETGTHSKVVNKNESSSANNIVTSAGFELSKLLQKEHQMRKNVIKHTSARHSRFGGLLSIQTPDKTRLTVSGSQALVDEKIALQKLDDSKKWNKRIIKKHQSVAAEGLPNSLLNSQTGKAIFFTESNGKHFKEFINNFIDSGFNILLHSVTNYFTTEQDRMVTLEQVEYLLFFAWFVKYQLLRSKIDNSADIKQVSEALKEVTFILVSSLLRSAYDLKNWTVTHAGMIAFNELLNLVSRTKAAQEEDSTDIEFIVSRLFSDERIQLLSNLPKIGSKYSLQFMKSCIELTHSVLKVLEQYSDDKTLVIEGKSRRQKKFNISEGDITKLIEEENVDRDEALDILTSSLRSIEVNFQKVQANYMTEPVIETYINFLERFRELEDDSIKKVFSFFHRVFVQAKEQALLFRFDLIILLREMLSPDGLDRMSRSRKYVSQFSDYFLARLKKRLKKSPAWFVGLLFPPLHNSEVGFYQRYGEYNVLNNESMYAAPASQFKPIPDEEALPPSILLDMKYGVLVSTLLDDGKTELLDQLLKHITHTLDIFKSWLTVNVNAGKETVNPPNEYFTLTGVLNNDPIFKDKDYRALLLLIGYSIPRKINEPCFLPGTVEVSDLTVSCELVKKYLSTPFETPNGLPSSSYLLRVRSEKDSFSHNEQDGWEGDDDYDYNDPYIVPDDQILSKSDAAYFKDLDNNASDKLKGTKFSKGIARSKKKDKRKRRKGEAKTNLPMFGDQDDERPQTVRERHGVFSKEFISDSEDDEDLMNPIFFENETYMRWLLDKNNGQLTEDRYIQFAKFAAERMNNGGVVTGDYTSLFGGSIPSIESIRATESSSFAPDKSLISLASHVASEMSIFDVNNNNNNQLSDDDVNSESRNSLGSSQPSNSQNMFQSEVYSRKESTKRSLEASAADESDEDEEAIRLFGKKSRVVLSQGDSDD
